Source: paper PMC7809621
These are yes or no findings as the source states them, for the method shown. In cells and extracts the contact can be indirect. Some entries that bind do so weakly or less than the wild type. For some of these results: Sequences can lack the tags named with a protein.

T1: Flag-Halo-MAKR2 (MEMBRANE ASSOCIATED KINASE REGULATOR2) (Arabidopsis thaliana) (UniProt Q9SH58)
T1 sequence: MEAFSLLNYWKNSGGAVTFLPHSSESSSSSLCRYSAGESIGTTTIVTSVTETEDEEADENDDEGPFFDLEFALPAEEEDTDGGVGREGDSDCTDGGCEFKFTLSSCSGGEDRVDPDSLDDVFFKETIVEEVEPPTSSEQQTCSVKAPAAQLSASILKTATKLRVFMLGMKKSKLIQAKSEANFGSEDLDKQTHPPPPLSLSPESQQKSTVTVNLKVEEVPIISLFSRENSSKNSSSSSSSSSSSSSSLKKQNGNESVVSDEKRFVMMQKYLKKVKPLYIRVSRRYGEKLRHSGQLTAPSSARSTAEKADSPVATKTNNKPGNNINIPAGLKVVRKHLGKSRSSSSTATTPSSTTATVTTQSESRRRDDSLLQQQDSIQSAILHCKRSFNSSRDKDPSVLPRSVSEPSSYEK

T2: MAKR2-mCitrine (Arabidopsis thaliana) (UniProt Q9SH58)
T2 sequence: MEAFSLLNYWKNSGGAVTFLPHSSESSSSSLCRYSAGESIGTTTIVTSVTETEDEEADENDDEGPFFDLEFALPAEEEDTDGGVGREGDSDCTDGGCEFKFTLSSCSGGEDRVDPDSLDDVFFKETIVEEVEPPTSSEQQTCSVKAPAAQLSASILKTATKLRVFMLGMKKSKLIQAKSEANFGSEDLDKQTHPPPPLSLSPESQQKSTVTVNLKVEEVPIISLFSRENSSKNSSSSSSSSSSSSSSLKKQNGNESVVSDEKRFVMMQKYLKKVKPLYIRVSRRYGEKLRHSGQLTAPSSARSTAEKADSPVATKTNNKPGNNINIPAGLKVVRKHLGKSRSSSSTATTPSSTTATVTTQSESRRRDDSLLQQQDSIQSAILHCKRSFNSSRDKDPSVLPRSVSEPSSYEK


What was measured:
[1] = target: T1, Flag-Halo-MAKR2 (MEMBRANE ASSOCIATED KINASE REGULATOR2) (Arabidopsis thaliana); test: pull-down; Halo-tag pull-down; both plasmids expressed together in the wheat germ cell-free reaction (25°C, 2 h); Halo-tagged bait held on Halo-tag magnetic beads (room temperature, 30 min); washes in PBS + 0,05% Tween20; HA-tagged prey seen by anti-HA blot
[2] = target: T2, MAKR2-mCitrine (Arabidopsis thaliana); test: co-IP; Arabidopsis PSB-L protoplasts co-transfected; treated with DMSO or 1 μM IAA for 1 h; MAKR2-mCitrine precipitated with GFP-Trap Magnetic Agarose (1 h, 4°C); blots with anti-GFP and anti-HA

Binder | binding [1] | binding [2]
TMK1^cyt-HA (isolated cytosolic domain of TRANSMEMBRANE KINASE1) (domain or fragment, UniProt P43298 504-942) CWYKKRQKRFSGSESSNAVVVHPRHSGSDNESVKITVAGSSVSVGGISDTYTLPGTSEVGDNIQMVEAGNMLISIQVLRSVTNNFSSDNILGSGGFGVVYKGELHDGTKIAVKRMENGVIAGKGFAEFKSEIAVLTKVRHRHLVTLLGYCLDGNEKLLVYEYMPQGTLSRHLFEWSEEGLKPLLWKQRLTLALDVARGVEYLHGLAHQSFIHRDLKPSNILLGDDMRAKVADFGLVRLAPEGKGSIETRIAGTFGYLAPEYAVTGRVTTKVDVYSFGVILMELITGRKSLDESQPEESIHLVSWFKRMYINKEASFKKAIDTTIDLDEETLASVHTVAELAGHCCAREPYQRPDMGHAVNILSSLVELWKPSDQNPEDIYGIDLDMSLPQALKKWQAYEGRSDLESSTSSLLPSLDNTQMSIPTRPYGFAESFTSVDGR | binds | –
TMK1-3HA (full-length TRANSMEMBRANE KINASE1) (receptor, UniProt P43298 24-942) DSDGDLSAMLSLKKSLNPPSSFGWSDPDPCKWTHIVCTGTKRVTRIQIGHSGLQGTLSPDLRNLSELERLELQWNNISGPVPSLSGLASLQVLMLSNNNFDSIPSDVFQGLTSLQSVEIDNNPFKSWEIPESLRNASALQNFSANSANVSGSLPGFLGPDEFPGLSILHLAFNNLEGELPMSLAGSQVQSLWLNGQKLTGDITVLQNMTGLKEVWLHSNKFSGPLPDFSGLKELESLSLRDNSFTGPVPASLLSLESLKVVNLTNNHLQGPVPVFKSSVSVDLDKDSNSFCLSSPGECDPRVKSLLLIASSFDYPPRLAESWKGNDPCTNWIGIACSNGNITVISLEKMELTGTISPEFGAIKSLQRIILGINNLTGMIPQELTTLPNLKTLDVSSNKLFGKVPGFRSNVVVNTNGNPDIGKDKSSLSSPGSSSPSGGSGSGINGDKDRRGMKSSTFIGIIVGSVLGGLLSIFLIGLLVFCWYKKRQKRFSGSESSNAVVVHPRHSGSDNESVKITVAGSSVSVGGISDTYTLPGTSEVGDNIQMVEAGNMLISIQVLRSVTNNFSSDNILGSGGFGVVYKGELHDGTKIAVKRMENGVIAGKGFAEFKSEIAVLTKVRHRHLVTLLGYCLDGNEKLLVYEYMPQGTLSRHLFEWSEEGLKPLLWKQRLTLALDVARGVEYLHGLAHQSFIHRDLKPSNILLGDDMRAKVADFGLVRLAPEGKGSIETRIAGTFGYLAPEYAVTGRVTTKVDVYSFGVILMELITGRKSLDESQPEESIHLVSWFKRMYINKEASFKKAIDTTIDLDEETLASVHTVAELAGHCCAREPYQRPDMGHAVNILSSLVELWKPSDQNPEDIYGIDLDMSLPQALKKWQAYEGRSDLESSTSSLLPSLDNTQMSIPTRPYGFAESFTSVDGR | – | binds
HSL1^cyt-HA (cytosolic domain of HAESA-LIKE1) (domain or fragment, UniProt Q9SGP2 640-996) YFKYRTFKKARAMERSKWTLMSFHKLGFSEHEILESLDEDNVIGAGASGKVYKVVLTNGETVAVKRLWTGSVKETGDCDPEKGYKPGVQDEAFEAEVETLGKIRHKNIVKLWCCCSTRDCKLLVYEYMPNGSLGDLLHSSKGGMLGWQTRFKIILDAAEGLSYLHHDSVPPIVHRDIKSNNILIDGDYGARVADFGVAKAVDLTGKAPKSMSVIAGSCGYIAPEYAYTLRVNEKSDIYSFGVVILEIVTRKRPVDPELGEKDLVKWVCSTLDQKGIEHVIDPKLDSCFKEEISKILNVGLLCTSPLPINRPSMRRVVKMLQEIGGGDEDSLHKIRDDKDGKLTPYYNEDTSDQGSIA | no binding | –
TMK1^Δkinase-3HA (kinase-deleted TMK1, amino acid 1-587) (domain or fragment, UniProt P43298 24-587) DSDGDLSAMLSLKKSLNPPSSFGWSDPDPCKWTHIVCTGTKRVTRIQIGHSGLQGTLSPDLRNLSELERLELQWNNISGPVPSLSGLASLQVLMLSNNNFDSIPSDVFQGLTSLQSVEIDNNPFKSWEIPESLRNASALQNFSANSANVSGSLPGFLGPDEFPGLSILHLAFNNLEGELPMSLAGSQVQSLWLNGQKLTGDITVLQNMTGLKEVWLHSNKFSGPLPDFSGLKELESLSLRDNSFTGPVPASLLSLESLKVVNLTNNHLQGPVPVFKSSVSVDLDKDSNSFCLSSPGECDPRVKSLLLIASSFDYPPRLAESWKGNDPCTNWIGIACSNGNITVISLEKMELTGTISPEFGAIKSLQRIILGINNLTGMIPQELTTLPNLKTLDVSSNKLFGKVPGFRSNVVVNTNGNPDIGKDKSSLSSPGSSSPSGGSGSGINGDKDRRGMKSSTFIGIIVGSVLGGLLSIFLIGLLVFCWYKKRQKRFSGSESSNAVVVHPRHSGSDNESVKITVAGSSVSVGGISDTYTLPGTSEVGDNIQMVEAGNMLISIQVLRSVTNN | – | no binding
